Among the data in publication PMC7246435 are binding values, retold here.

By UniProt entry, the sequences of proteins in these tests, tags left out. Residues count along the entry.
UniProt Q99426: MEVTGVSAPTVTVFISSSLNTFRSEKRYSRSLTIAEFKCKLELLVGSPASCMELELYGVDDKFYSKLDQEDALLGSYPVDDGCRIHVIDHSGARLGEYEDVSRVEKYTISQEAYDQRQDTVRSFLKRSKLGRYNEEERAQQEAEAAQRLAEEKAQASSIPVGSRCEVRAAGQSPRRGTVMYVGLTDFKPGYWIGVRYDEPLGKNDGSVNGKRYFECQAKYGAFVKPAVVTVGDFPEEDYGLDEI
UniProt Q9L9J3: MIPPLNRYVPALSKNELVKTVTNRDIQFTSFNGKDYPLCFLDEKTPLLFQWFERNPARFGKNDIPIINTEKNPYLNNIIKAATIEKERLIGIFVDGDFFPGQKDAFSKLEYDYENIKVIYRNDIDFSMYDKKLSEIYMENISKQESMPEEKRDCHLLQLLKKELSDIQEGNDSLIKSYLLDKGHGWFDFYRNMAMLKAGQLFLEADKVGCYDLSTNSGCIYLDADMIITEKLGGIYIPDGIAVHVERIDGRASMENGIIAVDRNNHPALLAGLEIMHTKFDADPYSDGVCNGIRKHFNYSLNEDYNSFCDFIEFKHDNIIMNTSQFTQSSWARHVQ
UniProt Q9BW71, residues 340-556: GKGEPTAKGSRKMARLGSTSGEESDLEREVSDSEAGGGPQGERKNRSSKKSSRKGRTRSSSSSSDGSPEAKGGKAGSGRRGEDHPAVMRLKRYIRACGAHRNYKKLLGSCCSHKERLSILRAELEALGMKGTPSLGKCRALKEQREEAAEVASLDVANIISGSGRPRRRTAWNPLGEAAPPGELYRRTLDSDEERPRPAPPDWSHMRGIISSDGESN
UniProt P12956, residues 335-609: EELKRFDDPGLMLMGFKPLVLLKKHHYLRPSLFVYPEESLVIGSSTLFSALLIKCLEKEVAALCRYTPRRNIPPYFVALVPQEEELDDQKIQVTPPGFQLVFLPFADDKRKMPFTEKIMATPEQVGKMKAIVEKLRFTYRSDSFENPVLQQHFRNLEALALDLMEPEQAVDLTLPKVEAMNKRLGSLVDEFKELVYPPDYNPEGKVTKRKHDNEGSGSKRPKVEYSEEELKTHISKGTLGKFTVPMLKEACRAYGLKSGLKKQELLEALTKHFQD
UniProt Q05516, residues 420-673: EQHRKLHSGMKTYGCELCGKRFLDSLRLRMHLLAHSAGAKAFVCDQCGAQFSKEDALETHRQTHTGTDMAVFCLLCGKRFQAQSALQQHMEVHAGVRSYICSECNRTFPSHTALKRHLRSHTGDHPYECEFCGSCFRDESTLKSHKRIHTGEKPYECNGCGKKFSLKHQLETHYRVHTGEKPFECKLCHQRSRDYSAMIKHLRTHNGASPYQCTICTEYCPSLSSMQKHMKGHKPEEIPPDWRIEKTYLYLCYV

For test [1], the target named is GST-TBCB (pIZ3509, pGEX-4T-1-TBCB) (human) (UniProt Q99426). The test is described as follows: pull-down.
Test [2] has as its target SseK1 fused to the DNA-binding domain of LexA (pIZ2203, pLEX10-SseK1) (Salmonella enterica serovar Typhimurium strain 14028) (UniProt Q9L9J3). Briefly: two-hybrid.
The target of test [3] is SseK1-3xFLAG expressed in HeLa cells (pIZ2047, pBABEpuro-SseK1-3xFLAG) (Salmonella enterica serovar Typhimurium) (UniProt Q9L9J3). Briefly: co-IP.

Results are given in words; binding and its absence hold for the method and conditions named. For part of these data: Binding seen in cells or lysates may run through a third protein. Some entries that bind do so weakly or less than the wild type.

On to “SseK1-3xFLAG, chromosomal fusion in Salmonella strain SV7071 (14028 sseK1::3xFLAG) (from UniProt Q9L9J3 1-336) (enzyme)”, for which, in test [1], the binding result is “binds”.

On to “HIRA-interacting protein 3 (HIRIP3), clone from the Jurkat cDNA library (from UniProt Q9BW71 340-556) (domain or fragment)”, for which the binding entry in test [2] is given as “binds”.

Turning to “3xHA-TBCB expressed in HeLa cells (pIZ3423, pCS2-3xHA-TBCB) (from UniProt Q99426 1-244)”, the binding entry in test [3] was “binds”.

“X-ray repair cross-complementing protein 6 (XRCC6), clone from the Jurkat cDNA library (from UniProt P12956 335-609) (domain or fragment)”: the binding result in test [2] is “binds”.

For “Tubulin-binding cofactor B (TBCB), clones from the Jurkat cDNA library fused to the Gal4 activation domain (from UniProt Q99426 1-244)”, the binding result in test [2] is “binds”.

As to “Zing finger and BTB domain-containing protein 16 (ZBTB16), clones from the Jurkat cDNA library (from UniProt Q05516 420-673) (domain or fragment)”, the binding entry in test [2] is recorded as “binds”.
